About 2,400 (1.1%) of roughly 220,000 compounds were called active. Inconclusive means that the source gave no clear call. Such entries were picked first, then a sample of the others. Calls come from the whole dose curve; as a rule, active = well fitted inhibition curve with a large enough effect; inconclusive = small, poorly fitted or top-dose-only effect, or effect the other way; inactive = no such curve, though single readings can be large or run the other way. Where the call is inconclusive, the potency comes from a doubtful curve fit.
test: qHTS Multiplex Assay to Identify Dual Action Probes in a Cell Model of Huntington: Aggregate Formation (GFP); details: PC12 HttQ103-GFP aggregates, Acumen cytometry, 40 h; activity change, negative = inhibition: at 46.1 µM (top of the series) unless noted; note: nearly all actives have a fitted effect of over 60% in size
How it was run: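 Using laser scanning cytometry, GFP-positive aggregates were counted after lysis of PC12 cells induced with 100 nM tebufenozide to express HTT exon 1 Q103–GFP. Compounds were tested in titration.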
% is set by controls: 0 for no effect and ±100 for the full control effect; potency is the fitted concentration of half-maximal effect.

| Compound | Potency | activity change, negative = inhibition |
| --- | --- | --- |
| c1cncc(CNc2cccc(-c3nc4ccccc4[nH]3)c2)c1 | inconclusive: 14.1 µM [activator, partial curve] |  |
| CCCCCn1c(CN2CCN(C)CC2)nc2c1c(=O)n(C)c(=O)n2C | inconclusive: 0.0316 µM [inhibitor, full curve, poor fit] |  |
| COc1ccc(-c2ccnc(SCC(=O)N3CCOCC3)n2)cc1 | inconclusive: 1 µM [activator, single point] |  |
| CC(C)Oc1ccc(Br)cc1/C=N\NC(N)=S | inconclusive: 2.82 µM [activator, full curve] |  |
| Cc1ccccc1Cn1nc(C)c(NC(=O)c2cc(-c3cccs3)on2)c1C | inconclusive: 11.2 µM [inhibitor, partial curve] |  |
| CCN1CCN(CCNC(=O)c2ccc(/C=C3/Sc4ccccc4N(Cc4ccccc4C)C3=O)cc2)CC1 | inconclusive: 35.5 µM [inhibitor, single point] |  |
| CCC(C)c1ccc(NC(=S)Nc2ccc(OC)c(OC)c2)cc1 (stereo unspecified) | inactive |  |
| Cc1cc(NC(=O)CCCn2cc([N+](=O)[O-])cn2)n(Cc2ccc(F)cc2)n1 | inactive |  |
| O=C(Nc1cc(S(=O)(=O)N2CCCCC2)ccc1Cl)c1ccccc1NS(=O)(=O)c1ccc(F)cc1 | active: 3.16 µM |  |
| CCCCOc1ccc(CSc2n[nH]c(C)n2)cc1 | inconclusive: 7.08 µM [inhibitor, partial curve] |  |
| CC(=O)Nc1ccc(NS(C)(=O)=O)cc1 | inactive |  |
| O=[N+]([O-])c1ccc(Cl)c(C2Nc3cccc4cccc(c34)N2)c1 | inconclusive: 0.708 µM [activator, full curve, poor fit] |  |
| CC(C)N(Cc1ccccc1)C(=O)c1ccc2nsnc2c1 |  | inactive: 2.32% [at 9.22 µM] |
| CCOc1ccccc1CNC(=O)C1CCN(C(=O)c2sccc2-n2cccc2)CC1 | inconclusive: 35.5 µM [inhibitor, single point] |  |
| COc1ccc(NC(=O)C(c2ccccc2)N(C)C(=O)CNC(C)=O)cc1 (stereo unspecified) | inconclusive: 11.2 µM [activator, partial curve] |  |
| Cc1ccc(NC(=S)c2nc3ccccc3[nH]2)c(C)c1 | inconclusive: 14.1 µM [inhibitor, single point] |  |
| Cc1ccccc1C(=O)NCCSc1ccccc1 | inactive |  |
| O=C(CSc1nc2ccccc2o1)Nc1ccc(N2CCOCC2)c(Cl)c1 | inconclusive: 14.1 µM [inhibitor, single point] |  |
| O=C1c2ccccc2C(=O)N1c1ccc(Br)c2cccnc12 | inconclusive: 0.562 µM [activator, full curve, poor fit] |  |
| Cc1ccc(-c2nnc(N3CCN(c4ccccn4)CC3)c3ccccc23)cc1 | inconclusive: 35.5 µM [inhibitor, single point] |  |
| CCOC(=O)Cc1c[nH]c2ccccc12 | inactive |  |
| COC(=O)c1sccc1-n1cccc1C(=O)NCc1ccccc1 | inactive |  |
| CN(C1CCCCC1)S(=O)(=O)c1ccc2c(c1)c(=O)c(C(=O)NCCN1CCCC1)cn2C | inconclusive: 1.26 µM [inhibitor, single point] |  |
| Cc1cc(CNC(=O)c2cc(-c3ccccc3)nc3ccccc23)nn1C | inconclusive: 31.6 µM [inhibitor, single point] |  |

2 entries from above, bar-delimited:
Compound | Potency | activity change, negative = inhibition
CCCCCn1c(CN2CCN(C)CC2)nc2c1c(=O)n(C)c(=O)n2C | inconclusive: 0.0316 µM [inhibitor, full curve, poor fit] | 
CCN1CCN(CCNC(=O)c2ccc(/C=C3/Sc4ccccc4N(Cc4ccccc4C)C3=O)cc2)CC1 | inconclusive: 35.5 µM [inhibitor, single point] | 

Going on with the list:

| Compound | Potency | activity change, negative = inhibition |
| --- | --- | --- |
| Cc1cc(SCC(=O)N/N=C/c2ccc(O)cc2O)c(C)cc1Br | active: 7.94 µM |  |
| O=C(CC1Sc2ccccc2NC1=O)NCc1cccc(Cl)c1 (stereo unspecified) | inconclusive: 0.501 µM [activator, full curve, poor fit] |  |
| CC(C)Cc1cc(C(=O)N2CCN(C(c3ccccc3)c3ccccc3)CC2)no1 | inconclusive: 15.8 µM [inhibitor, single point] |  |
| COc1ccc(-c2ccc(SCC(=O)c3ccc(F)cc3)nn2)cc1OC | inactive |  |
| COc1cc(C(=O)O/N=C2\C=CC(=O)C(C)=C2)cc(OC)c1OC | active: 11.2 µM |  |
| CCn1cc(C(=O)NCc2ccc(C)o2)c2cc(OC)c(OC)cc2c1=O | inconclusive: 15.8 µM [activator, single point] |  |
| Cc1cc(C(=O)CSc2nc3ccccc3[nH]2)c(C)n1CC1CCCO1 (stereo unspecified) | inconclusive: 10 µM [inhibitor, partial curve] |  |
| CCNc1nc(ON=C(C)C)nc(N(C)C)n1 | inconclusive: 10 µM [activator, partial curve] |  |
| O=C(CCN1CCOCC1)c1ccc2c(c1)OCCO2 | inconclusive: 35.5 µM [inhibitor, single point] |  |
| CN(C)S(=O)(=O)c1ccc(N2CCCC2)c(C(=O)Nc2ccccc2N2CCOCC2)c1 | inconclusive: 6.31 µM [inhibitor, partial curve, poor fit] |  |
| COc1ccc(CNC(=O)CCCc2ccccc2)cc1 | inactive |  |
| CC(=O)C1(O)Cc2c(O)c3c(c(O)c2C(OC2CC(N)C(O)C(C)O2)C1)C(=O)c1c(O)cccc1C3=O (stereo unspecified) | active: 1 µM |  |
| Cc1ccc(NC(=O)c2ccc([N+](=O)[O-])o2)cc1C | inconclusive: 14.1 µM [inhibitor, single point] |  |
| Cc1cc(C(=O)COc2cccc(-n3cnnn3)c2)c(C)n1-c1ccccc1 | active: 11.2 µM |  |
| O=C1CC(N2CCN(C3CC(=O)N(CCc4ccccc4)C3=O)CC2)C(=O)N1CCc1ccccc1 (stereo unspecified) | inconclusive: 3.98 µM [inhibitor, single point] |  |
| CCCc1cc(=O)[nH]c(SCC(=O)c2cc(C)n(CCOC)c2C)n1 | inconclusive: 0.0071 µM [inhibitor, full curve, poor fit] |  |
| CCn1c(NCc2ccc(N(C)C)cc2)nc2ccccc21 | inconclusive: 5.62 µM [inhibitor, single point] |  |
| O=C(O)C1CCCCC1C(=O)Nc1ccc(F)cc1F (stereo unspecified) | inconclusive: 35.5 µM [inhibitor, single point] |  |
| Cc1[nH]c(=O)[nH]c(=O)c1S(=O)(=O)Nc1ccc(Oc2ccccc2)cc1 | inconclusive: 20 µM [inhibitor, single point] |  |
| COc1ccc(-c2noc(COc3ccc4ccccc4c3Br)n2)cc1OC | inconclusive: 1.12 µM [activator, single point] |  |
| O=C(N1CCN(c2ccccc2)CC1)C12CC3CC(CC(C3)C1)C2 | inactive |  |
| COCCCNc1oc(COc2ccc(Cl)cc2Cl)nc1C#N | inactive |  |
| N#C/C(=N\Nc1ccc(Cl)c(Cl)c1)C(=O)C1CC1 | inconclusive: 5.62 µM [inhibitor, single point] |  |
| COc1ccc(-c2c(C)sc(NC(=O)c3ccnn3C)c2C#N)cc1 | inconclusive: 35.5 µM [inhibitor, single point] |  |

| Compound | Potency | activity change, negative = inhibition |
| --- | --- | --- |
| CC(=O)Cc1nsc(NC(=O)c2cccs2)n1 | inconclusive: 35.5 µM [activator, single point] |  |
| CCOc1ccccc1OCCCOc1ccc([N+](=O)[O-])cc1Cl | inactive |  |
| O=C1c2ccccc2C(=O)N1CCCCN(C(=O)c1ccc([N+](=O)[O-])cc1)c1ccc(Cl)cc1 | inactive |  |
| Cc1ccc(OCC(=O)c2cc(C)n(CC(F)(F)F)c2C)c([N+](=O)[O-])n1 | inconclusive: 1.41 µM [activator, full curve, poor fit] |  |
| COc1nc(-c2cnccn2)sc1C | inconclusive: 3.55 µM [activator, partial curve] |  |
| CC(C)C(=O)N1CCN(c2ccccc2NC(=O)c2cc([N+](=O)[O-])ccc2N2CCOCC2)CC1 | inconclusive: 35.5 µM [activator, single point] |  |
| C=CCSc1nnc2c(n1)OC(c1c(C)[nH]n(-c3ccccc3)c1=O)Nc1ccccc1-2 (stereo unspecified) | inconclusive: 35.5 µM [inhibitor, single point] |  |
| COc1ccc(-c2noc(CCC(=O)N3CCN(c4cccc(C(F)(F)F)c4)CC3)n2)cc1 | inconclusive: 10 µM [inhibitor, single point] |  |
| COc1ccc(C(=O)c2c[nH]c(C(=O)NCC3CCCO3)c2)cc1 (stereo unspecified) | inconclusive: 1.58 µM [activator, partial curve] |  |
| COc1ccc(CCNC(=O)CCc2ccc(S(=O)(=O)NC(C)C)cc2)cc1 | inactive |  |
| Cc1n[nH]c(=S)n(/N=C/c2cccc([N+](=O)[O-])c2)c1=O |  | inactive: 5.05% [at 9.22 µM] |
| CCN(CC)CCOc1ccc2c(c1)C(=NNC(=O)c1ccccn1)c1cc(OCCN(CC)CC)ccc1-2 | inconclusive: 35.5 µM [inhibitor, single point] |  |
| O=C(CSc1ccc(-c2cccc([N+](=O)[O-])c2)nn1)NC1CCCC1 | inactive |  |
| CC1(C)c2ccccc2N2CC(=O)N(CC(N)=O)C21C (stereo unspecified) | inactive |  |
| CC(C)(C)c1ccc(C(=O)CC(Sc2ccc(Cl)cc2)C(=O)O)cc1 (stereo unspecified) | inactive |  |
| CC(C)c1nc(SCC(=O)N2c3ccccc3CC2C)c2ccccc2n1 (stereo unspecified) | inconclusive: 31.6 µM [activator, single point] |  |
| Cc1c(Cl)c(=O)oc2cc(OCC(=O)NCc3cccs3)ccc12 | inactive |  |
| CCCCCn1c(=O)c(Cc2ccccc2)c(O)c2ccccc21 | inconclusive: 35.5 µM [inhibitor, single point] |  |
| CCCOc1ccc(C(=O)CCC(=O)OCC(=O)Nc2ccc(Oc3ccccc3)cc2)cc1 | inconclusive: 35.5 µM [inhibitor, single point] |  |
| O=C(/C=C/c1ccco1)NCC1COc2ccccc2O1 (stereo unspecified) |  | inactive: -15.4% [at 9.22 µM] |
| Cc1cccc(C(=O)O/N=C2/CC3CCC2(C)C3(C)C)c1 (stereo unspecified) | inactive |  |
| CC(=O)OCCNC(=O)c1cc2ccccc2oc1=O | inconclusive: 1 µM [inhibitor, partial curve, poor fit] |  |
| CC(=O)c1ccc(OCC(=O)c2cc(C)n(-c3ccc4c(c3)OCO4)c2C)cc1 | inconclusive: 15.8 µM [inhibitor, partial curve] |  |
